According to patent publication US20120065614A1 (UNIVERSITY OF NORTH TEXAS, priority 2010, published 2012):
Read-outs that look alike come from different tables or passages of the source.

What was measured:
[1] = Photoluminescence enhancement, titration of gold phosphor with microgel and heating; assay type: physicochemical
[2] = cited from earlier work

O=S(=O)([O-])c1cccc([PH](c2cccc(S(=O)(=O)[O-])c2)(c2cccc(S(=O)(=O)[O-])c2)[Au]([PH](c2cccc(S(=O)(=O)[O-])c2)(c2cccc(S(=O)(=O)[O-])c2)c2cccc(S(=O)(=O)[O-])c2)[PH](c2cccc(S(=O)(=O)[O-])c2)(c2cccc(S(=O)(=O)[O-])c2)c2cccc(S(=O)(=O)[O-])c2)c1 [Na8[Au(TPPTS)3], tris[tris(3,3′,3″-trisulfonatophenyl)phosphine]aurate(I)]
PL change on heating ([1]; aqueous solution in absence of the PNIPAM microgel, ambient temperature to 37° C.): quenching
PL enhancement ([1]; freshly synthesized Au phosphor 1×10^−5 M (3.00 mL), smaller increments of ~3.5 wt. % microgel): up to 157 fold
PL enhancement ([1]; gold phosphor 1×10^−5 M, titrated with PNIPAM-co-allylamine microgel, RT): 9 fold
PL enhancement ([1]; gold phosphor 1×10^−6 M, titrated with PNIPAM-co-allylamine microgel, RT): 50 fold
PL enhancement ([1]; gold phosphor 3×10^−6 M, titrated with PNIPAM-co-allylamine microgel, RT): 17 fold
PL enhancement ([1]; gold phosphor 5×10^−5 M, titrated with PNIPAM-co-allylamine microgel at constant microgel concentration, RT): 4 fold
PL enhancement ([1]; gold phosphor 5×10^−6 M, titrated with PNIPAM-co-allylamine microgel, RT): 14 fold
PL enhancement ([1]; on addition of 0.2 mL of microgel, ~1×10^−6 M Au phosphor (2.50 mL), ~2.0 wt. % microgel, pH 5.5, room temperature): up to 70 fold

c1cc2ccc3cccc4ccc(c1)c2c34 [pyrene]
PL enhancement ([2]; embedded in hydrophobic polystyrene (toluene solution)): 40 fold

O=C([O-])CC(O)(CC(=O)[O-])C(=O)[O-].[Tb+3] [terbium citrate]
PL enhancement ([2]; upon binding to silver nanoparticles in solution (Zhou and co-workers)): 1.72 fold
